For the assay, the target named is T1, chloride channel-3 (ClC-3) (human (endogenous in HeLa)) (UniProt P51790).
T1 sequence: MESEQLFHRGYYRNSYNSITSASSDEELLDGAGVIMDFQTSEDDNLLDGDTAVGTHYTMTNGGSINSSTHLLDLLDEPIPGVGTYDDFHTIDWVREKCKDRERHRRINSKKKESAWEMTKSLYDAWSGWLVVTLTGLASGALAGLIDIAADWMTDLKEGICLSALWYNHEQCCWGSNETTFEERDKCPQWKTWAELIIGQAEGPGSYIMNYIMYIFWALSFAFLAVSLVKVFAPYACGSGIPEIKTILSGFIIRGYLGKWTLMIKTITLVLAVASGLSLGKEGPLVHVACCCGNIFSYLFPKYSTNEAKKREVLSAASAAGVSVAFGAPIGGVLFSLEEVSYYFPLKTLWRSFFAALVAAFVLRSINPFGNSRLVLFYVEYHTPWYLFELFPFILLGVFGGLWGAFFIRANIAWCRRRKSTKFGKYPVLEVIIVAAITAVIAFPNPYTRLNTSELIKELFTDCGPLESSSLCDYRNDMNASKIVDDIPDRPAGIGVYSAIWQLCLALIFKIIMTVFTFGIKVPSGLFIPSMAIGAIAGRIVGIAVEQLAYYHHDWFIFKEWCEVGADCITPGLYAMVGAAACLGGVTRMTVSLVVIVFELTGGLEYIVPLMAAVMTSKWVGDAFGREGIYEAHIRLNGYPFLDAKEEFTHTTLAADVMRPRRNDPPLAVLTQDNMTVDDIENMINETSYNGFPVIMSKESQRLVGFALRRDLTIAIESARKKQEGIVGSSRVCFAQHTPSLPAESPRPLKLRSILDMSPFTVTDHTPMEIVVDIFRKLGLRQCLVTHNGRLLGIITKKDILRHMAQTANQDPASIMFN
The experiment in a line: co-IP; EGF-stimulated HeLa cells transfected with wild-type or Ser→Ala mutant GFP-K18; endogenous ClC-3 and β1 integrin.

No constants are given. Whether binding was seen depends on the method and setting. In cells and extracts the contact can be indirect. Binding can be weak; no strength is given.

For K18 Ser33→Ala mutant (GFP-K18), the binding result is listed as “binds”.

In the case of K18 Ser52→Ala mutant (GFP-K18), the binding entry is given as “binds”.

Source of the values: PMC4385862.
